Results from PubChem BioAssay AID1487 (National Center for Advancing Translational Sciences (NCATS), 2009).
Some of the results follow. Shown are side measurements of this screen, not its main read-out; they come without a call. Most of these compounds were active or inconclusive in the main read-out, so they are no random draw. Potencies come from curve fits of mixed quality, noted in brackets.

Experiment: qHTS Assay for Modulators of Lamin A Splicing
Conditions: HeLa LMNA splicing GFP/RFP minigene ratio, 48 h
Summary of the method: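 S3 HeLa cells stably expressing lamin A-EGFP splicing minigene plus DsRed2, 600 cells/well, 48 h compound exposure at 37C. Laser-scanning cytometry; analysed as GFP (500-530 nm)/RFP (575-640 nm) total intensity ratio; 0.5% DMSO vehicle.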

[1] = measured here: GFP splicing reporter channel
[2] = measured here: RFP viability control channel

| Structure (SMILES) | AC50 [1] | AC50 [2] |
| --- | --- | --- |
| c1ccc(-c2nc(N3CCN(c4ccccc4)CC3)nc(-n3ccnc3)n2)cc1 | 12.6 µM [rising, partial curve] | 22.4 µM [rising, single point] |
| COc1cc(NC2=Nc3cccc4cccc2c34)cc(OC)c1OC | – | 35.5 µM [rising, single point] |
| O=C(O)/C=C\c1ccc(Cn2ccnc2)cc1 | 0.00891 µM [falling, full curve, poor fit] | 0.00891 µM [falling, full curve, poor fit] |
| Cc1ccc(Cn2nnc3c(=O)[nH]c(C4CCN(S(=O)(=O)c5ccc(F)cc5)CC4)nc32)cc1 | – | 35.5 µM [rising, single point] |
| CC(C)CNC(=S)NNC(=O)c1csc2c1CCC(C)C2 (centres undefined) | – | 22.4 µM [rising, single point] |
| COc1ccc(NS(=O)(=O)c2cc(NC(=O)CNC(=O)c3cccc(OC)c3)ccc2C)cc1 | – | 3.16 µM [falling, single point] |
| CC(=O)c1cccc(NC2c3ccccc3C(=O)N2Cc2ccc3c(c2)OCO3)c1 (centres undefined) | – | 12.6 µM [rising, single point] |
| O=C1c2ccccc2-c2cccc(NS(=O)(=O)c3ccc(C(F)(F)F)cc3)c21 | 22.4 µM [rising, single point] | 35.5 µM [rising, single point] |
| Cc1ccc(OCC(O)Cn2c(=N)n(CCN3CCOCC3)c3ccccc32)cc1 (centres undefined) | 35.5 µM [rising, single point] | 35.5 µM [rising, single point] |
| CCCc1cnc2c(c1SCC(=O)Nc1c(C)cc(C)cc1C)c(=O)n(C)c(=O)n2C | 10 µM [rising, partial curve, poor fit] | 2.24 µM [rising, full curve] |
| COc1cccc(CN(C)c2nc(-c3cccs3)nc3ccccc23)c1 | 11.2 µM [rising, single point] | 22.4 µM [rising, single point] |
| CCC1(C)CC(CCNS(=O)(=O)c2ccc(C)cc2)(c2ccc(C)cc2)CCO1 (centres undefined) | 15.8 µM [falling, single point] | 14.1 µM [falling, partial curve] |
| CC(C)(NO)/C(=N\O)c1ccc(Cl)cc1 | – | 20 µM [falling, partial curve] |
| CSc1nc(N)nc(SCC(=O)c2ccc(C)cc2)c1C#N | – | 12.6 µM [rising, single point] |
| CCOC(=O)/C(=N/Nc1ccc(Cl)cc1)S(=O)(=O)c1ccccc1 | – | 35.5 µM [rising, single point] |
| Cc1cc(C)cc(N(C(=O)c2nsc(Cl)c2Cl)C(C(=O)NC2CCCC2)c2ccc(O)cc2)c1 (centres undefined) | – | 17.8 µM [rising, partial curve] |
| O=C(/C=C/c1cn(CC(O)CN2CCCCCC2)c2ccccc12)c1cccs1 (centres undefined) | – | 25.1 µM [rising, single point] |

| Structure (SMILES) | AC50 [1] | AC50 [2] |
| --- | --- | --- |
| Cc1ccc(OCc2nnc(SCC(=O)Nc3ccccc3C(C)C)o2)cc1 | – | 0.0398 µM [falling, full curve, poor fit] |
| Cc1cccc(NS(=O)(=O)c2cnc[nH]2)c1 | – | 0.891 µM [falling, full curve, poor fit] |
| CC(=O)c1ccc(OCC(O)CN2CCN(CCN3C(=O)c4cccc5cccc(c45)C3=O)CC2)cc1 (centres undefined) | 20 µM [rising, single point] | 17.8 µM [rising, single point] |
| Cc1ccc2[nH]c(=O)c(CN(C(=O)c3cccs3)c3ccccc3)cc2c1 | – | 0.891 µM [falling, full curve, poor fit] |
| C/C(=N/NC(=O)CCCOc1ccc(Cl)cc1Cl)c1ccc(C)o1 | – | 35.5 µM [rising, single point] |
| CSc1nc(N)nc(SCC(=O)Nc2cccc(F)c2)c1C#N | 0.0447 µM [rising, full curve, poor fit] | 2.82 µM [rising, full curve] |
| CC(C)(C)n1nnnc1C(c1ccc(F)cc1)N1CCC(C(N)=O)CC1 (centres undefined) | – | 1.41 µM [falling, full curve, poor fit] |
| CCOC(=O)C1=C(C)NC(C)=C(C(=O)OCC)C1c1ccccc1C=CC(=O)OC(C)(C)C | 35.5 µM [falling, partial curve, poor fit] | 35.5 µM [falling, single point] |
| O=C(CN1CCC(n2nnc3cc(C(F)(F)F)ccc32)CC1)Nc1ccc2c(c1)OCCO2 | 11.2 µM [rising, partial curve] | 17.8 µM [rising, partial curve] |
| CCOC(=O)c1oc2ccc3c(c2c1C)C(=O)CC1(CCN(C(=O)OCC)CC1)O3 | 35.5 µM [rising, single point] | 35.5 µM [rising, single point] |
| COc1ccc(CCNS(=O)(=O)c2ccc(N3CCCCS3(=O)=O)cc2)cc1OC | – | 3.98 µM [falling, full curve, poor fit] |
| Cc1cc(NC(=O)/C=C/C(=O)N(c2ccccc2C)C(C(=O)NC2CCCC2)c2ccc(F)cc2)no1 (centres undefined) | 14.1 µM [falling, single point] | 0.178 µM [falling, single point] |
| COc1cccc(CC2(CO)CCCN(Cc3cn[nH]c3C3CCCCC3)C2)c1 (centres undefined) | – | 4.47 µM [falling, partial curve, poor fit] |
| C1=C(c2ccccc2)Nc2ccccc2N=C1c1ccccc1 | 12.6 µM [rising, single point] | 35.5 µM [rising, single point] |
| O=C(Cn1cnc2onc(-c3ccc(F)cc3)c2c1=O)Nc1cccc(C(F)(F)F)c1 | 20 µM [falling, partial curve] | 17.8 µM [falling, partial curve] |
| COc1ccccc1N(CC(O)Cn1c2ccccc2c2ccccc21)S(=O)(=O)c1ccccc1 (centres undefined) | 10 µM [rising, partial curve] | 14.1 µM [rising, partial curve] |

Pulled one by one from the list above:

| Structure (SMILES) | AC50 [1] | AC50 [2] |
| --- | --- | --- |
| Cc1cccc(NS(=O)(=O)c2cnc[nH]2)c1 | – | 0.891 µM [falling, full curve, poor fit] |
| CSc1nc(N)nc(SCC(=O)Nc2cccc(F)c2)c1C#N | 0.0447 µM [rising, full curve, poor fit] | 2.82 µM [rising, full curve] |
| C1=C(c2ccccc2)Nc2ccccc2N=C1c1ccccc1 | 12.6 µM [rising, single point] | 35.5 µM [rising, single point] |
